In PMC6408822:
No constants are given. Whether binding was seen depends on the method and setting. Binding seen in cells or lysates may run through a third protein. Some binding calls cover weakened binding; strength is not graded here.

By UniProt entry, the sequences of proteins in these tests, tags left out. Residues count along the entry.
UniProt P25445, residues 26-335: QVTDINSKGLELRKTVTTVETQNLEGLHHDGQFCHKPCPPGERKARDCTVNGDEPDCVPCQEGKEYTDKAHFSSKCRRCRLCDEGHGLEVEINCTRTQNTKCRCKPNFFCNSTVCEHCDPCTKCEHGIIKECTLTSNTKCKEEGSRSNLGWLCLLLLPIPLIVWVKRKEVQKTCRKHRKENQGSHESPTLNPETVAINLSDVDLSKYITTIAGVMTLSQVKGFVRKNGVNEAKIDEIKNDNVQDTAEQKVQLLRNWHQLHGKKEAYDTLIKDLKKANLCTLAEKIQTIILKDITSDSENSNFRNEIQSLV

Target: Fas protein (human (endogenous in SW620 and HCT116)) (UniProt P25445)
Test: co-IP; SW620 and HCT116 cell lysates in IP lysis buffer (2 mM Tris-HCl pH 7.4, 10 mM EDTA, 100 mM NaCl, 1% IGEPAL); immunoprecipitation with antibodies against CRIP1 or Fas on protein A/G beads; western blot with anti-Fas or anti-CRIP1

B1: Cysteine-rich intestinal protein 1 (protein, UniProt P50238 1-77)
chain: MPKCPKCNKEVYFAERVTSLGKDWHRPCLKCEKCGKTLTSGGHAEHEGKPYCNHPCYAAMFGPKGFGRGGAESHTFK
  binding: binds
